According to PubChem BioAssay AID1347075 (National Center for Advancing Translational Sciences (NCATS), 2019):
In all, about 400,000 compounds went through this assay and about 5,500 (1.4%) were called active. The inconclusive results got no clear call from the source; some entries with a clear call stand among them for comparison. Calls follow the shape of the dose curve; as a rule, active = well fitted cell-killing curve with a large enough effect; inconclusive = small, poorly fitted or top-dose-only effect, or effect the other way; inactive = flat fitted curve, though single readings scatter. Where the call is inconclusive, the potency comes from a doubtful curve fit.

Experiment: qHTS assay for MDR1-selective chemotherapeutics: Primary screen using the parental adenocarcinoma cell KB-3-1; also: nearly all actives have a fitted effect of over 60% in size
Settings: KB-3-1 viability, CellTiter-Glo ATP luminescence, 72 h; series mostly up to 46.1 µM
In short: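 Here the drug-naive KB-3-1 line serves as comparator for MDR sub-line selectivity; cells received compound titrations, 72 h at 37 °C, then CellTiter-Glo readout.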
Potency is read from the fitted curve at half-maximal effect.

Structure (SMILES) | Potency
CCn1nnc(NC(=O)c2ccccc2Br)n1 | inactive
COc1ccccc1NC(=O)Nc1cccc(C)n1 | active: 20.6 µM
COc1ccc(CN(Cc2cc3cc4c(cc3[nH]c2=O)OCO4)C(=O)NC2CCCCC2)cc1 | inconclusive: 29.1 µM [cytotoxic, single point]
Cc1ccc(-c2nc3c4ccccc4n(CC(=O)N4CCN(c5ccccc5F)CC4)c(=O)n3n2)cc1 | inactive
Cc1ccc(NC(=O)CN(C)S(=O)(=O)c2ccc3c(c2)n(C)c(=O)c(=O)n3C)cc1C | inactive
Cc1cccc(Cn2c(C(C)(C)C)cc3cccnc32)c1 | inconclusive: 18.4 µM [cytotoxic, partial curve]
Cc1cccc(OCc2ccc(C(=O)Nc3cc(C)on3)o2)c1 | inconclusive: 3.26 µM [cytotoxic, partial curve, poor fit]
Cc1ccc2oc(=O)c3cnn(CC(=O)N(CCN(C)C)Cc4ccco4)c3c2c1 | inconclusive: 23.1 µM [cytotoxic, single point]
Cc1cc(C)cc(C(=O)N2CCN(Cc3ccc4c(c3)OCO4)CC2)c1 | inactive
CSc1ccc(C(=O)/C=C/c2ccc(N)cc2)cc1 | inconclusive: 18.4 µM [cytotoxic, single point]
Cc1cc(S(=O)(=O)N2CCCC(N(C)CCc3ccccn3)C2)c(C)cc1Cl (stereo not drawn) | inconclusive: 23.1 µM [cytotoxic, partial curve, poor fit]
CC(C)C(N)c1csc(Nc2ccc(C(=O)N(C)Cc3ccccc3)cn2)n1 (stereo not drawn) | inactive
NC(=O)CC(NC(=O)c1ccccc1)c1ccc(N2CCC(Cc3ccccc3)CC2)c([N+](=O)[O-])c1 (stereo not drawn) | inconclusive: 18.4 µM [cytotoxic, single point]
CCOc1ccc(S(=O)(=O)N2CCOCC2)cc1NC(=O)CCN1C(=O)NC2(CCCC2)C1=O | inactive
O=C(CCl)Nc1cccc(-c2cnc3ccccc3n2)c1 | active: 10.3 µM
Cc1ccc(C)c(OCCn2c(-c3ccc(Cl)cc3)nc3ccccc3c2=O)c1C | inactive
CCN1CCN(c2cc(N3CCc4ccccc4C3)c(F)cc2[N+](=O)[O-])CC1 | inactive
CCOC(=O)N1CCN(S(=O)(=O)c2cc(C)c(C)cc2C)CC1 | inactive
Cc1ccc2c(c1)cc(CN(Cc1ccco1)C(=O)COc1ccccc1)c1nnnn12 | inconclusive: 23.1 µM [cytotoxic, single point]
CCOc1cccc2sc(N(CCN(C)C)C(=O)/C=C/c3cccs3)nc12 | inactive
COC(=O)c1c(C)oc2ccc(N(C(=O)c3ccncc3)S(=O)(=O)c3ccccc3)cc12 | inconclusive: 18.4 µM [cytotoxic, single point]
Cc1ccc(CCNC(=O)CCCn2nc(C)c3c(C)n(-c4ccccc4)nc3c2=O)cc1 | inactive
O=S(=O)(NCc1ccccn1)c1ccc(Cl)s1 | inactive
COc1ccc(S(=O)(=O)NC2(C(F)(F)F)N=C(c3ccccc3)NC2=O)cc1 (stereo not drawn) | inconclusive: 29.1 µM [cytotoxic, single point]

Structure (SMILES) | Potency
Cc1ccc(C)c(-c2[nH]ncc2CN2CCCC(CO)(Cc3ccccc3C)C2)c1 (stereo not drawn) | inactive
COc1ccccc1-c1cncc(NC(C)=O)n1 | inconclusive: 23.1 µM [rising, single point]
CCc1ccccc1NC(=O)CNC(=O)c1cn(Cc2ccccc2)nc1-c1cccnc1 | inactive
Cc1[nH]nc2c1C(c1ccccn1)N(c1ccc(Br)cc1)C2=O (stereo not drawn) | inactive
CCc1ccccc1NC(=O)c1ccc([N+](=O)[O-])s1 | inconclusive: 23.1 µM [cytotoxic, single point]
CCOc1ccc(CNCc2c(C(=O)O)n(Cc3ccccc3F)c3cc(OC)ccc23)cc1 | inactive
O=C(NNC(=O)C(c1ccccc1)c1ccccc1)c1ccccn1 | inconclusive: 3.26 µM [cytotoxic, full curve]
CNC(=S)N/N=C/c1ccc(-c2cc([N+](=O)[O-])ccc2Cl)o1 | active: 7.31 µM
Cc1cc(C)c(OCC(=O)NCCCn2nc(C)cc2C)c(C)c1 | inconclusive: 7.31 µM [rising, partial curve, poor fit]
COc1ccc(NC(=O)CSc2nc(-c3cccs3)cc(C(F)(F)F)n2)cc1OC | active: 9.2 µM
COCc1cc(=O)n2c([nH]c3ccccc32)c1C#N | inactive
CCCC(C)NNC(=O)c1cc2ccccc2[nH]1 (stereo not drawn) | inactive
O=c1[nH]c(S)nc2sc3c(c12)CCCC3 | inactive
Cc1ccc(S(=O)(=O)N(CC(O)Cn2c3ccccc3c3ccccc32)c2cccc(C(N)=O)c2)cc1 (stereo not drawn) | inconclusive: 23.1 µM [cytotoxic, single point]
COc1ccc(S(=O)(=O)N2c3ccc(F)cc3CCC2C)cc1 (stereo not drawn) | active: 1.64 µM
CS(=O)(=O)c1ccc(Sc2nc3ccccc3[nH]2)c([N+](=O)[O-])c1 | inconclusive: 29.1 µM [cytotoxic, single point]
CCOc1ccccc1N1CCN(c2nc3ccccc3nc2C(C#N)C(=O)OC(C)C)CC1 (stereo not drawn) | inconclusive: 29.1 µM [cytotoxic, single point]
Cc1cccc(SCc2noc(C(=O)NC(C)C)c2C(=O)O)c1 | inconclusive: 29.1 µM [cytotoxic, single point]
Cc1cc(N2CCN(c3ccccc3)CC2)n2cc(-c3ccccc3)nc2n1 | inactive
CCc1noc(C)c1C(=O)N(CCC(C)C)c1c(N)n(Cc2ccccc2)c(=O)[nH]c1=O | inconclusive: 11.6 µM [rising, partial curve, poor fit]
CC(C(=O)NC1CCCC1)N(C(=O)c1snc(C(N)=O)c1N)c1ccc2c(c1)OCCO2 (stereo not drawn) | inactive
CCOC(=O)N1CCN(S(=O)(=O)c2ccc(C(=O)NNc3nc4c(C)cc(C)cc4s3)cc2)CC1 | inconclusive: 23.1 µM [cytotoxic, single point]
COc1ccc(Cl)cc1S(=O)(=O)n1cnc2ccccc21 | inactive
CCOC(=O)N1CCC(N2CCN(S(=O)(=O)c3ccc([N+](=O)[O-])cc3)CC2)CC1 | inconclusive: 10.3 µM [cytotoxic, partial curve, poor fit]

As a working copy, some entries already given.
Structure (SMILES) | Potency
Cc1ccc(S(=O)(=O)N(CC(O)Cn2c3ccccc3c3ccccc32)c2cccc(C(N)=O)c2)cc1 (stereo not drawn) | inconclusive: 23.1 µM [cytotoxic, single point]
COc1ccc(S(=O)(=O)N2c3ccc(F)cc3CCC2C)cc1 (stereo not drawn) | active: 1.64 µM
